According to the supplement of paper PMC8728848:
The list shows a part of the results.

Legend:
Test in all cases: glycan array binding signal (z-score within array); higher = stronger binding
Details in all cases: glycan notation: IUPAC condensed, linker removed
Fuc(a1-3)GlcNAc = molecular target: Fuc(a1-3)GlcNAc
Method in brief: (§1)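 From the Consortium for Functional Glycomics database, 3228 arrays were curated, keeping only those whose protein sequence was available. Binding is given as a within-array Z-score averaged across arrays sharing a protein sequence and across linkers. Negative Z-scores can be read as non-binding.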

[1] = molecular target: Fuc(a1-3)[Gal(b1-4)]Glc6S
Method in brief: as §1

[2] = molecular target: Fuc(a1-3)[Gal(b1-4)]GlcNAc
Method in brief: as §1

[3] = molecular target: Fuc(a1-3)[Gal(b1-4)]GlcNAc(b1-2)Man
Method in brief: as §1

[4] = molecular target: Fuc(a1-3)[Gal(b1-4)]GlcNAc(b1-2)Man(a1-3)[Fuc(a1-3)[Gal(b1-4)]GlcNAc(b1-2)Man(a1-6)]Man(b1-4)GlcNAc(b1-4)GlcNAc
Method in brief: as §1

[5] = molecular target: Fuc(a1-3)[Gal(b1-4)]GlcNAc(b1-2)Man(a1-3)[Fuc(a1-3)[Gal(b1-4)]GlcNAc(b1-2)Man(a1-6)]Man(b1-4)GlcNAc(b1-4)[Fuc(a1-6)]GlcNAc
Method in brief: as §1

[6] = molecular target: Fuc(a1-3)[Gal(b1-4)]GlcNAc(b1-3)Gal(b1-3)[Fuc(a1-4)]GlcNAc
Method in brief: as §1

[7] = molecular target: Fuc(a1-3)[Gal(b1-4)]GlcNAc(b1-3)Gal(b1-4)[Fuc(a1-3)]GlcNAc
Method in brief: as §1

[8] = molecular target: Fuc(a1-3)[Gal(b1-4)]GlcNAc(b1-3)Gal(b1-4)[Fuc(a1-3)]GlcNAc(b1-3)Gal(b1-4)[Fuc(a1-3)]GlcNAc
Method in brief: as §1

[9] = molecular target: Fuc(a1-3)[Gal(b1-4)]GlcNAc(b1-3)GalNAc
Method in brief: as §1

[10] = molecular target: Fuc(a1-3)[Gal(b1-4)]GlcNAc(b1-6)GalNAc
Method in brief: as §1

[11] = molecular target: Fuc(a1-3)[Gal(b1-4)]GlcNAc(b1-6)[Gal(b1-3)GlcNAc(b1-3)]Gal(b1-4)Glc
Method in brief: as §1

[12] = molecular target: Fuc(a1-3)[Gal(b1-4)]GlcNAc6S
Method in brief: as §1

[13] = molecular target: Fuc(a1-3)[Gal3S(b1-4)]Glc
Method in brief: as §1

[14] = molecular target: Fuc(a1-3)[Gal3S(b1-4)]GlcNAc
Method in brief: as §1

[15] = molecular target: Fuc(a1-3)[Gal3S(b1-4)]GlcNAc6S
Method in brief: as §1

[16] = molecular target: Fuc(a1-3)[GalNAc(b1-4)]GlcNAc
Method in brief: as §1

[17] = molecular target: Fuc(a1-3)[GalNAc(b1-4)]GlcNAc6S
Method in brief: as §1

Fuc(a1-4)GlcNAc = molecular target: Fuc(a1-4)GlcNAc
Method in brief: as §1

Fuc(b1-3)GlcNAc = molecular target: Fuc(b1-3)GlcNAc
Method in brief: as §1

Gal(a1-2)Gal = molecular target: Gal(a1-2)Gal
Method in brief: as §1

Gal(a1-3)Gal = molecular target: Gal(a1-3)Gal
Method in brief: as §1

Gal(a1-3)Gal(b1-3)GlcNAc = molecular target: Gal(a1-3)Gal(b1-3)GlcNAc
Method in brief: as §1

[18] = molecular target: Gal(a1-3)Gal(b1-3)GlcNAc(b1-2)Man
Method in brief: as §1

[19] = molecular target: Gal(a1-3)Gal(b1-3)GlcNAc(b1-2)Man(a1-3)[Gal(a1-3)Gal(b1-3)GlcNAc(b1-2)Man(a1-6)]Man(b1-4)GlcNAc(b1-4)GlcNAc
Method in brief: as §1

[20] = molecular target: Gal(a1-3)Gal(b1-3)GlcNAc(b1-3)GalNAc
Method in brief: as §1

[21] = molecular target: Gal(a1-3)Gal(b1-3)GlcNAc(b1-6)GalNAc
Method in brief: as §1

[22] = molecular target: Gal(a1-3)Gal(b1-3)[Fuc(a1-4)]GlcNAc(b1-2)Man(a1-3)[Gal(a1-3)Gal(b1-3)[Fuc(a1-4)]GlcNAc(b1-2)Man(a1-6)]Man(b1-4)GlcNAc(b1-4)GlcNAc
Method in brief: as §1

Gal(a1-3)Gal(b1-4)Glc = molecular target: Gal(a1-3)Gal(b1-4)Glc
Method in brief: as §1

Gal(a1-3)Gal(b1-4)GlcNAc = molecular target: Gal(a1-3)Gal(b1-4)GlcNAc
Method in brief: as §1

[23] = molecular target: Gal(a1-3)Gal(b1-4)GlcNAc(b1-2)Man
Method in brief: as §1

[24] = molecular target: Gal(a1-3)Gal(b1-4)GlcNAc(b1-2)Man(a1-3)[Gal(a1-3)Gal(b1-4)GlcNAc(b1-2)Man(a1-6)]Man(b1-4)GlcNAc(b1-4)GlcNAc
Method in brief: as §1

[25] = molecular target: Gal(a1-3)Gal(b1-4)GlcNAc(b1-3)GalNAc
Method in brief: as §1

[26] = molecular target: Gal(a1-3)Gal(b1-4)GlcNAc(b1-6)GalNAc
Method in brief: as §1

[27] = molecular target: Gal(a1-3)Gal(b1-4)[Fuc(a1-3)]GlcNAc
Method in brief: as §1

[28] = molecular target: Gal(a1-3)Gal(b1-4)[Fuc(a1-3)]GlcNAc(b1-2)Man(a1-3)[Gal(a1-3)Gal(b1-4)[Fuc(a1-3)]GlcNAc(b1-2)Man(a1-6)]Man(b1-4)GlcNAc(b1-4)GlcNAc
Method in brief: as §1

Gal(a1-3)GalNAc = molecular target: Gal(a1-3)GalNAc
Method in brief: as §1

[29] = molecular target: Gal(a1-3)[Gal(a1-4)]Gal(b1-4)GlcNAc
Method in brief: as §1

[30] = molecular target: Gal(a1-4)Gal(b1-3)GlcNAc(b1-2)Man(a1-3)[Gal(a1-4)Gal(b1-3)GlcNAc(b1-2)Man(a1-6)]Man(b1-4)GlcNAc(b1-4)GlcNAc
Method in brief: as §1

Gal(a1-4)Gal(b1-4)Glc = molecular target: Gal(a1-4)Gal(b1-4)Glc
Method in brief: as §1

Gal(a1-4)Gal(b1-4)GlcNAc = molecular target: Gal(a1-4)Gal(b1-4)GlcNAc
Method in brief: as §1

[31] = molecular target: Gal(a1-4)Gal(b1-4)GlcNAc(b1-2)Man(a1-3)[Gal(a1-4)Gal(b1-4)GlcNAc(b1-2)Man(a1-6)]Man(b1-4)GlcNAc(b1-4)GlcNAc
Method in brief: as §1

[32] = molecular target: Gal(a1-4)Gal(b1-4)GlcNAc(b1-3)Gal(b1-4)Glc
Method in brief: as §1

Gal(a1-4)GlcNAc = molecular target: Gal(a1-4)GlcNAc
Method in brief: as §1

Gal(a1-6)Glc = molecular target: Gal(a1-6)Glc
Method in brief: as §1

Gal(b1-2)Gal = molecular target: Gal(b1-2)Gal
Method in brief: as §1

Gal(b1-3)Gal = molecular target: Gal(b1-3)Gal
Method in brief: as §1

Gal(b1-3)Gal(b1-4)GlcNAc = molecular target: Gal(b1-3)Gal(b1-4)GlcNAc
Method in brief: as §1

Gal(b1-3)GalNAc = molecular target: Gal(b1-3)GalNAc
Method in brief: as §1

[33] = molecular target: Gal(b1-3)GalNAc(a1-3)[Fuc(a1-2)]Gal(b1-4)Glc
Method in brief: as §1

[34] = molecular target: Gal(b1-3)GalNAc(a1-3)[Fuc(a1-2)]Gal(b1-4)GlcNAc
Method in brief: as §1

Gal(b1-3)GalNAc(b1-3)Gal = molecular target: Gal(b1-3)GalNAc(b1-3)Gal
Method in brief: as §1

[35] = molecular target: Gal(b1-3)GalNAc(b1-3)Gal(a1-4)Gal(b1-4)Glc
Method in brief: as §1

[36] = molecular target: Gal(b1-3)GalNAc(b1-4)Gal(b1-4)Glc
Method in brief: as §1

[37] = molecular target: Gal(b1-3)GalNAc(b1-4)[Neu5Ac(a2-3)]Gal(b1-4)Glc
Method in brief: as §1

Gal(b1-3)GlcNAc = molecular target: Gal(b1-3)GlcNAc
Method in brief: as §1

[38] = molecular target: Gal(b1-3)GlcNAc(a1-3)Gal(b1-4)GlcNAc
Method in brief: as §1

[39] = molecular target: Gal(b1-3)GlcNAc(a1-6)Gal(b1-4)GlcNAc
Method in brief: as §1

Gal(b1-3)GlcNAc(b1-2)Man = molecular target: Gal(b1-3)GlcNAc(b1-2)Man
Method in brief: as §1

[40] = molecular target: Gal(b1-3)GlcNAc(b1-2)Man(a1-3)[Gal(b1-3)GlcNAc(b1-2)Man(a1-6)]Man(b1-4)GlcNAc(b1-4)GlcNAc
Method in brief: as §1

B1: PX14343F-bfa-562-20-562 (Bacteroides fragilis) (protein)
chain: CDDFLDSFPQDTVTNENFWKSKEDADKVLVDIYASLLPKDAIFFDEAMSDNAYLVWDWWGGAQQVANGSYTTSGEIPTNRWNGSYEVIRKCWFLLEGIEKIEDISEQDKNKIIGETYFMLAYNYYVLTSYFGDVPLVTKTLAIPESKQLVRTPKAEVVDYAINKLKEAAVMLEGLSQEKGRVTADACRFLIARMYLYNGDYSNVLETVKLLEGKYQLYREGDTPYEDLFSGVAENSCEVILSVVCDKRVGEIYTSHGGNGIMLLKGITGEDPYRGVTPSGSLVDAYPMADGRLIHEAGSSYDPKKPYEGRDPRFYQSIVYPTGQIKYLDVETGTVKERLYDPEDPTTVPEHQYNYSQPSATGYMWNKYIDYSVYAMNSVWDCTNDIIVFRYADVLLMKAEALLQTKGESAKEEVCNLIDQLRDRCSCGRVHRENYNSKDELMELLKNERRIELANEGLRYMDLIRWKDAEKNTIVTGVGLTGQMYGAYMRKDGVGKDDKTVDVDNTPRRYIETRYFNASKGYLFPIPQKERDLNPNLTQNPNW
glycan array binding signal (z-score) (Fuc(a1-3)GlcNAc): -0.159
glycan array binding signal (z-score) [1]: -0.078
glycan array binding signal (z-score) [2]: 0.458
glycan array binding signal (z-score) [3]: 0.356
glycan array binding signal (z-score) [4]: 1.15
glycan array binding signal (z-score) [5]: -0.568
glycan array binding signal (z-score) [6]: -0.917
glycan array binding signal (z-score) [7]: -0.249
glycan array binding signal (z-score) [8]: -0.023
glycan array binding signal (z-score) [9]: 0.113
glycan array binding signal (z-score) [10]: -0.242
glycan array binding signal (z-score) [11]: 0.493
glycan array binding signal (z-score) [12]: -0.142
glycan array binding signal (z-score) [13]: -0.368
glycan array binding signal (z-score) [14]: 0.011
glycan array binding signal (z-score) [15]: -0.355
glycan array binding signal (z-score) [16]: 0.476
glycan array binding signal (z-score) [17]: -0.676
glycan array binding signal (z-score) (Fuc(a1-4)GlcNAc): -0.18
glycan array binding signal (z-score) (Fuc(b1-3)GlcNAc): -0.725
glycan array binding signal (z-score) (Gal(a1-2)Gal): 0.192
glycan array binding signal (z-score) (Gal(a1-3)Gal): -0.081
glycan array binding signal (z-score) (Gal(a1-3)Gal(b1-3)GlcNAc): -0.521
glycan array binding signal (z-score) [18]: 0.587
glycan array binding signal (z-score) [19]: 0.857
glycan array binding signal (z-score) [20]: -0.716
glycan array binding signal (z-score) [21]: 0.014
glycan array binding signal (z-score) [22]: 0.795
glycan array binding signal (z-score) (Gal(a1-3)Gal(b1-4)Glc): 0.151
glycan array binding signal (z-score) (Gal(a1-3)Gal(b1-4)GlcNAc): 0.337
glycan array binding signal (z-score) [23]: 0.106
glycan array binding signal (z-score) [24]: 0.153
glycan array binding signal (z-score) [25]: 0.157
glycan array binding signal (z-score) [26]: -0.294
glycan array binding signal (z-score) [27]: -0.135
glycan array binding signal (z-score) [28]: 1.13
glycan array binding signal (z-score) (Gal(a1-3)GalNAc): 0.387
glycan array binding signal (z-score) [29]: 3.69
glycan array binding signal (z-score) [30]: 0.16
glycan array binding signal (z-score) (Gal(a1-4)Gal(b1-4)Glc): -1.36
glycan array binding signal (z-score) (Gal(a1-4)Gal(b1-4)GlcNAc): -0.217
glycan array binding signal (z-score) [31]: 1.42
glycan array binding signal (z-score) [32]: -0.481
glycan array binding signal (z-score) (Gal(a1-4)GlcNAc): 0.167
glycan array binding signal (z-score) (Gal(a1-6)Glc): 0.197
glycan array binding signal (z-score) (Gal(b1-2)Gal): 0.188
glycan array binding signal (z-score) (Gal(b1-3)Gal): -0.31
glycan array binding signal (z-score) (Gal(b1-3)Gal(b1-4)GlcNAc): -0.446
glycan array binding signal (z-score) (Gal(b1-3)GalNAc): 0.202
glycan array binding signal (z-score) [33]: -0.723
glycan array binding signal (z-score) [34]: 0.008
glycan array binding signal (z-score) (Gal(b1-3)GalNAc(b1-3)Gal): -0.278
glycan array binding signal (z-score) [35]: 1.02
glycan array binding signal (z-score) [36]: -0.716
glycan array binding signal (z-score) [37]: -0.477
glycan array binding signal (z-score) (Gal(b1-3)GlcNAc): -0.481
glycan array binding signal (z-score) [38]: -0.574
glycan array binding signal (z-score) [39]: -0.363
glycan array binding signal (z-score) (Gal(b1-3)GlcNAc(b1-2)Man): -0.636
glycan array binding signal (z-score) [40]: -0.367
